Assay results taken from article PMC2654563.
For at least one entry, the source does not settle the construct or the ends of the probe. At least one verdict rests on a figure or table, not on a statement of the authors.

The chains behind the UniProt entries cited, without tags or fusion partners. Where a name states a change or a piece, a line headed by the entry shows the natural chain unless it says otherwise.
UniProt P0ACJ8: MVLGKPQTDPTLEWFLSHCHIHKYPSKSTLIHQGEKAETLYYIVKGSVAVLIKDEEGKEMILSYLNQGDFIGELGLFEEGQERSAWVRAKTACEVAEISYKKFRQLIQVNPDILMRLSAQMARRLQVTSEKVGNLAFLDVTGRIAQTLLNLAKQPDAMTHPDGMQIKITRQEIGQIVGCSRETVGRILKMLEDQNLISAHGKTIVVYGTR

Biological target: CAP (catabolite activator protein, CRP) (Escherichia coli) (UniProt P0ACJ8)
Assay: EMSA
Conditions: 0.2 mM cAMP, 4 mM MgCl2, EMSA: 20 mM Tris-HCl pH 8.0, 40 mM NaCl, 4 mM MgCl2, 0.1 mM EDTA, 1 mM DTT, 10 ug/ml salmon sperm DNA, 6% glycerol, CAP 0-1000 nM, temperature not stated, recombinant protein, protein details: His6, label: 5'-32P top strand

CCTAATGAGTGAGCTAACTCACATTAATTG (double strand) [Lac site]
binding result: binds
